These are yes or no findings as the source states them, for the method shown. Some binding calls cover weakened binding; strength is not graded here. Sequences can lack the tags named with a protein.

This assay concerns the target T1, IL-22R1 (IgG Fc chimera) (UniProt Q8N6P7).
T1 sequence: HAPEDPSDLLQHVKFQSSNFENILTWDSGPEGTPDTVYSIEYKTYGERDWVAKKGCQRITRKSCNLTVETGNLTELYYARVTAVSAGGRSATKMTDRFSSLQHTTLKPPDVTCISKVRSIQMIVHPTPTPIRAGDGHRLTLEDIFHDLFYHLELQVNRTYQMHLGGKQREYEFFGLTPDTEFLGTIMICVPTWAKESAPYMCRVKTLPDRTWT
In words: ELISA; competition, validation of the assay: IL-22R1 (IgG Fc chimera) coated at 2.5 µg/mL in carbonate buffer pH 9.6; IL-22 (His-tag) at 1 nM with serially diluted anti-IL-22 antibody IL22JOP; anti-His-tag HRP; both purified. (In general: ELISA stands for enzyme-linked immunosorbent assay.)

B1: IL-22 (His-tag) (ligand, UniProt Q9GZX6 34-179)
chain: APISSHCRLDKSNFQQPYITNRTFMLAKEASLADNNTDVRLIGEKLFHGVSMSERCYLMKQVLNFTLEEVLFPQSDRFQPYMQEVVPFLARLSNRLSTCHIEGDDLHIQRNVQKLKDTVKKLGESGEIKAIGELDLLFMSLRNACI
In the case of B1, the binding entry is recorded as “binds”.

The values above are taken from paper PMC11446014, “Human IL-22 receptor-targeted small protein antagonist suppress murine DSS-induced colitis” (Cell Communication and Signaling : CCS, 2024).
